Results are given in words; binding and its absence hold for the method and conditions named. Binding seen in cells or lysates may run through a third protein. Some binding calls cover weakened binding; strength is not graded here. For part of these data: Tags and fused reporters may be left off the sequences shown.
B1: HA-Rspo3 (protein, UniProt Q9BXY4 22-272)
chain: QNASRGRRQRRMHPNVSQGCQGGCATCSDYNGCLSCKPRLFFALERIGMKQIGVCLSSCPSGYYGTRYPDINKCTKCKADCDTCFNKNFCTKCKSGFYLHLGKCLDNCPEGLEANNHTMECVSIVHCEVSEWNPWSPCTKKGKTCGFKRGTETRVREIIQHPSAKGNLCPPTNETRKCTVQRKKCQKGERGKKGRERKRKKPNKGESKEAIPDSKSLESSKEIPEQRENKQQQKKRKVQDKQKSVSVSTVH
B2: endogenous WDR76 (HEK293 cells) (protein, UniProt Q9H967 1-626)
chain: MSRSGAAAEKADSRQRPQMKVNEYKENQNIAYVSLRPAQTTVLIKTAKVYLAPFSLSNYQLDQLMCPKSLSEKNSNNEVACKKTKIKKTCRRIIPPKMKNTSSKAESTLQNSSSAVHTESNKLQPKRTADAMNLSVDVESSQDGDSDEDTTPSLDFSGLSPYERKRLKNISENADFFASLQLSESAARLREMIEKRQPPKSKRKKPKRENGIGCRRSMRLLKVDPSGVSLPAAPTPPTLVADETPLLPPGPLEMTSENQEDNNERFKGFLHTWAGMSKPSSKNTEKGLSSIKSYKANLNGMVISEDTVYKVTTGPIFSMALHPSETRTLVAVGAKFGQVGLCDLTQQPKEDGVYVFHPHSQPVSCLYFSPANPAHILSLSYDGTLRCGDFSRAIFEEVYRNERSSFSSFDFLAEDASTLIVGHWDGNMSLVDRRTPGTSYEKLTSSSMGKIRTVHVHPVHRQYFITAGLRDTHIYDARRLNSRRSQPLISLTEHTKSIASAYFSPLTGNRVVTTCADCNLRIFDSSCISSKIPLLTTIRHNTFTGRWLTRFQAMWDPKQEDCVIVGSMAHPRRVEIFHETGKRVHSFGGEYLVSVCSINAMHPTRYILAGGNSSGKIHVFMNEKSC

Key:
Myc-HRAS = Myc-HRAS (UniProt P01112); assay: co-IP; HEK293 cells co-transfected with the tagged candidate and Myc-HRAS; whole cell lysates (RIPA buffer) immunoprecipitated with anti-Myc antibody; immunoblot
GST-NRAS = GST-NRAS (UniProt P01111); assay: pull-down; HEK293 whole cell lysates incubated with purified soluble recombinant GST-H, -K or -NRAS; immunoblot; only the target purified
GST-KRAS = GST-KRAS (UniProt P01116); assay: as above

Binder	binding (Myc-HRAS)	binding (GST-NRAS)	binding (GST-KRAS)
B1	binds		
B2		binds	binds
